Drawing on paper PMC12445521, this text covers binding for seven molecules.

Assay [1] concerns the target GFP-tagged PEDV M protein (porcine epidemic diarrhea virus (PEDV), strain AH2012/12). The assay can be described thus: affinity purification with mass spectrometry.
Assay [2] has the same target. The assay can be described thus: affinity purification with mass spectrometry; IPEC-J2 cells transfected with C-terminally GFP-tagged structural proteins (pCDNA3.1) or GFP vector; immunoprecipitated proteins analysed and quantified by mass spectrometry.
The target in assay [3] is GFP-tagged PDCoV M protein (porcine deltacoronavirus (PDCoV), strain CZ/2020). The description is as above.

Results are given in words; binding and its absence hold for the method and conditions named. In cells and extracts the contact can be indirect. A yes stands for co-enrichment or nearness to the bait. Other partners may have been found.

B1: Aldehyde dehydrogenase 1 family member A1 (protein, UniProt I3LRS5 1-501)
chain: MSSSAMPDIPVPLTNLKFQYTKIFINNEWHNSVSGKKFPVFNPATEEKLCEVEEGDKEDVDKAVKAARQAFQIGSPWRTMDASERGQLINKLADLIERDRLLLATMESMNGGKLFSNAYLMDLGGCIRTLRYCAGWADKIHGRTIPMDGNFFTYTRSEPIGVCGQIIPWNFPLVMLIWKIGPALSCGNTVVVKPAEQTPLTALHVASLIKEAGFPPGVVNIVPGYGPTAGAAISSHMDVDKVAFTGSTQVGKMIKEAAGKSNLKRVTLELGGKSPCIVFADADLDAAVEFAHHGLFYHQGQCCIAASRLFVEESIYNEFVRKSVERAKKYVLGNPLTPGVNQGPQIDKEQYEKILDLIESGKKEGAKLECGGGPWGNKGYFIQPTVFSNVTDEMRIAKEEIFGPVQQIMKFKSLDDVIKRANNTLYGLSAGIFTKDIDKAITVSSALQSGTVWVNCYGVLSAHCPFGGFKMSGNGRELGEYGLHEYTEIKTVTIKISQKNS
On to B1, for which, in assay [1], the binding entry was “binds”.

B2: Mediator of ErbB2-driven cell motility (protein, UniProt F2Z5F8 1-297)
chain: MSNRVVCREASHAGSWYTASGPQLNAQLEGWLSQVQSTKRPARAIIAPHAGYTYCGSCAAHAYKQVDPSITRRIFILGPSHHVPLSRCALSSVDIYRTPLYDLRIDQKIYGELWKTGMFERMSLQTDEDEHSIEMHLPYTAKAMESHKDEFTIIPVLVGALSESKEQEFGKLFSKYLADPSNLFVVSSDFCHWGQRFRYSYYDESQGEIYRSIEHLDKMGMSIIEQLDPVSFSNYLKKYHNTICGRHPIGVLLNAITELQKNGMNMSFSFLNYAQSSQCRNWQDSSVSYAAGALTVH
B2: in assay [2], the binding result is on record as “binds”.

B3: Phosphoglycerate kinase 1 (protein, UniProt Q7SIB7 1-417)
chain: MSLSNKLTLDKLDVKGKRVVMRVDFNVPMKNNQITNNQRIKAAIPSIKFCLDNGAKSVVLMSHLGRPDGIPMPDKYSLEPVAVELKSLPGKDVLFLKDCVGPEVEKACADPAAGSVILLENLRFHVEEEGKGKDASGSKVKADPAKIEAFRASLSKLGDVYVNDAFGTAHRAHSSMVGVNLPKKAGGFLMKKELNYFAKALESPERPFLAILGGAKVADKIQLINNMLDKVNEMIIGGGMAFTFLKVLNNMEIGTSLFDEEGSKIVKDLMSKAEKNGVKITLPVDFVTADKFDENAKIGQATVASGIPAGWMGLDCGPESSKKYSEAVARAKQIVWNGPVGVFEWEAFAQGTKALMDEVVKATSRGCITIIGGGDTATCCAKWNTEDKVSHVSTGGGASLELLEGKVLPGVDALSNV
For the molecule B3, the binding entry in assay [3] is “binds”.

B4: Opioid growth factor receptor (protein, UniProt A0A8W4FNH8 1-689)
chain: MEDPDCDSTWEDDEEEDGEGPFSRAYEGGEARRTPSLNPQKGFHVRSPGRQHVSDCPDCRFSLALQDLVEPDGNGDMPNLSFYKNEMAFLPNGCFIEDLLKNWKEDYDLLEDNHTYIQWLFPLREPGVNWHAKPLTLQEVEAFKSSPEVKERLVRAYELMLGFYGIQLKDRKTGRVCRAQNYQKRFQNLNWHSHNNLRITRMLKSLGELGLEHFQVPLTRFFLEETLVRRELPGVRQSALDYFVFTVRCRHQRRELLYFAWEHFRPRCRFVWAPLEKLQKFRPCSPPCSPRTGPRWAAKREKGPQDPVLEASAPGQTCGPGRGEEGDREDPGDEAGGEQGPASPNPKESKKRKLEASLRERAPGEPGPSALEVEKIALNLEGCALSQGGLGDGPPEAGSWAPGEAAQPCPQPPGTKVADEVRKRRKVDQGARDGAGVAATRPPAPSGCPEAKEGQSEIKEEADGQAEPEQGAPRSPAAAAETRARGNPRGRENPRGSRGNPLRRRGNPRGSRGNPLRRRGNLQGRGNPPRGRKNPWGRGNPPRRRGNPPWGRGNPPRGRENPWGRGNPLRGRENLSGRGNPPRRRGNPPRRSWWTGGRRPQGRSLAVNPGRLKGWDAGCLGLRPGPRRWLFSVPSSAGLALVVSGHCSGHYSCREDRPHPQRRPRTAEPLPRPRLLASPSSRPSLASSL
For the molecule B4, the binding result in assay [1] is reported as “binds”.

B5: T-complex protein 1 subunit gamma (protein, UniProt Q29068 1-82)
chain: NAAKTIADIIRTCLGPKSMMKMLLDPMGGIVMTNDGNAILREIQVQHPAAKSMIEISRTQDEEVGDGTTSVIILAGEMLSVA
As for B5, the binding entry in assay [3] is reported as “binds”.

B6: Junction plakoglobin (protein, UniProt Q8WNW3 1-745)
chain: MEVMNLIEQPIKVTEWQQTYTYDSGIHSGANTCVPSVSSKGLMEEDEACGRQYTLKKTTTYTQAVPQSQGDLEYQMSTTARAKRVREAMCPGVTGEDSSLLLATQVEGQTTNLQRLAEPSQLLKSAIVHLINYQDDAELATRALPELTKLLNDEDPVVVTKAAMIVNQLSKKEASRRALMGSPQLVAAVVRTMQNTSDLDTARCTTSILHNLSHHREGLLAIFKSGGIPALVRMLSSPVESVLFYAITTLHNLLLYQEGAKMAVRLADGLQKMVPLLNKNNPKFLAITTDCLQLLAYGNQESKLIILANGGPQALVQIMRNYSYEKLLWTTSRVLKVLSVCPSNKPAIVEAGGMQALGKHLTSNSPRLVQNCLWTLRNLSDVATKQEGLESVLKILVNQLSVDDVNVLTCATGTLSNLTCNNSKNKTLVTQNSGVEALIHAILRAGDKDDITEPAVCALRHLTSRHPEAEMAQNSVRLNYGIPAIVKLLNQPNQWPLVKATIGLIRNLALCPANHAPLQEASVIPRLVQLLVKAHQDAQRHVAAGTQQPYTDGVRMEEIVEGCTGALHILARDPMNRMEIFRLNTIPLFVQLLYSSVENIQRVAAGVLCELAQDKEAADAIDAEGASSPLMELLHSRNEGTATYAAAVLFRISEDKNPDYRKRVSVELTNSLFKHDPAAWEAAQSMIPINEPYADDMDATYRPMYSSDVPLDPLEMHMDMDGDYPMDTYSDGLRPPYPAADHMLA
Take B6: the binding entry in assay [2] is “binds”.

B7: High mobility group protein B2 (protein, UniProt P17741 1-210)
chain: MGKGDPNKPRGKMSSYAFFVQTCREEHKKKHPDSSVNFAEFSKKCSERWKTMSAKEKSKFEDMAKSDKARYDREMKNYVPPKGDKKGKKKDPNAPKRPPSAFFLFCSEHRPKIKSEHPGLSIGDTAKKLGEMWSEQSAKDKQPYEQKAAKLKEKYEKDIAAYRAKGKGEAGKKGPGRPTGSKKKNEPEDEEEEEEEEEDEDEEEEDEDEE
Regarding B7, the binding result in assay [2] is listed as “binds”.
